Record: PubChem BioAssay AID743121 (NCATS, 2013)
Here is a random part of about 26,000 reagents. 167 of them (0.63%) count as active. 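Calls are per gene from RSA p-values that are not deposited; an individual active-marked siRNA can sensitise only weakly.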 Reagents against one gene are numbered here. Not all columns of the deposit are shown.

Aim: 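Knock-downs that sensitise breast cancer cells to camptothecin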 (primary screen)
Cells: MDA-MB-231 cells, a human breast cancer line
Reagents: single siRNA against human genes, 20 nM siRNA (0.8 pmol per well)
Time to read-out: 120 h (drug added 48 h after transfection, read 72 h later)
Treatment: camptothecin 20 nM (about EC30) for 72 h; vehicle 0.1% DMSO in parallel plates
Measurement: 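Cell viability by ATP luminescence (CellTiter-Glo) as % of non-targeting siRNA wells, and the log2 ratio of viability without drug over viability with camptothecin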
Reading the numbers: log2 vehicle/camptothecin viability: higher = stronger sensitisation to camptothecin
Active means: 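Each gene scored by redundant siRNA activity (RSA) over its individual siRNA ratios; a gene is called active at p < 0.001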

log2 vehicle/camptothecin viability, by gene and reagent
OR10H2 (olfactory receptor family 10 subfamily H member 2): #1 -0.165 inactive; #2 -0.104 inactive; #3 -0.476 inactive; #4 -0.446 inactive
SPARC (secreted protein acidic and cysteine rich): #1 -0.322 inactive; #2 0.0724 inactive; #3 -0.162 inactive; #4 -0.694 inactive
ATP2A1: #1 -0.0746 inactive; #2 -0.511 inactive; #3 -0.46 inactive; #4 -0.328 inactive
NRGN (neurogranin): #1 0.000636 inactive; #2 0.429 inactive; #3 -0.333 inactive; #4 0.346 inactive
FGFR1OP2 (FGFR1 oncogene partner 2): #1 0.102 inactive; #2 -0.691 inactive; #3 0.176 inactive; #4 -0.491 inactive
AK7 (adenylate kinase 7): #1 0.0316 inactive; #2 -0.156 inactive; #3 0.0356 inactive; #4 -0.042 inactive
PATE1 (prostate and testis expressed 1): #1 -0.294 inactive; #2 -0.259 inactive; #3 -0.0858 inactive; #4 -0.0151 inactive
LMO1 (LIM domain only 1): #1 -0.00147 inactive; #2 0.0195 inactive; #3 -0.22 inactive
LAMA2 (laminin subunit alpha 2): #1 -0.46 inactive; #2 -0.064 inactive; #3 -0.452 inactive; #4 -0.0114 inactive
IL10RA (interleukin 10 receptor subunit alpha): #1 -0.148 inactive; #2 -0.382 inactive; #3 -0.258 inactive; #4 0.0108 inactive
MED16 (mediator complex subunit 16): #1 0.696 inactive; #2 0.211 inactive; #3 -0.239 inactive
OFD1 (OFD1 centriole and centriolar satellite protein): #1 -0.109 inactive; #2 1.14 inactive; #3 -0.422 inactive; #4 0.000402 inactive
ABCD1 (ATP binding cassette subfamily D member 1): #1 -0.944 inactive; #2 -0.152 inactive; #3 -0.277 inactive; #4 -0.0873 inactive
ERC1 (ELKS/RAB6-interacting/CAST family member 1): #1 -0.125 inactive; #2 -0.433 inactive; #3 -0.27 inactive; #4 -0.171 inactive
SLC10A3: #1 -0.37 inactive; #2 -0.531 inactive; #3 0.0276 inactive
LAMA5 (laminin subunit alpha 5): #1 -0.268 inactive; #2 0.132 inactive; #3 -0.179 inactive; #4 -0.0149 inactive
PRSS3 (serine protease 3): #1 0.146 inactive; #2 0.0406 inactive; #3 0.151 inactive
PACSIN2 (protein kinase C and casein kinase substrate in neurons 2): #1 0.448 inactive; #2 -0.43 inactive; #3 0.152 inactive; #4 0.108 inactive
POC1A (POC1 centriolar protein A): #1 0.102 inactive; #2 0.216 inactive; #3 -0.207 inactive; #4 0.0919 inactive
CCR1 (C-C motif chemokine receptor 1): #1 -0.222 inactive; #2 -0.349 inactive; #3 -0.226 inactive; #4 -0.0885 inactive
TRAIP (TRAF interacting protein): #1 -0.25 inactive; #2 -0.759 inactive; #3 0.0523 inactive; #4 -0.267 inactive
ADH6 (alcohol dehydrogenase 6 (class V)): #1 0.0794 inactive; #2 -0.131 inactive; #3 -0.129 inactive
MAP3K19 (mitogen-activated protein kinase kinase kinase 19): #1 -0.127 inactive; #2 0.199 inactive; #3 -0.411 inactive; #4 0.00209 inactive; #5 -0.197 inactive; #6 -0.0762 inactive
